From patent publication US8450281B2, “Non-immunosuppressive cyclosporin for treatment of Ullrich congenital muscular dystrophy” (Debiopharm S.A., priority 2007, dated 2013)
Values joined by “and” are separate entries in the source; they are usually repeats but may differ in a detail not shown here. Identical values can stand only once. “Also recorded” adds a separate entry of the source. At least one compound was matched to its structure with a doubt left.

Columns and labels:
[1] = test system: myoblast cultures from UCMD patients; assay: TUNEL incidence of apoptosis in myoblast cultures from UCMD patients; format: cell-based, human; conditions: myoblasts from patients 1 and 4; 1.6 μM, 2 hours
Method: Experiments were carried out to experimentally test the existence of a causal link between lack of collagen VI and apoptosis. Myoblast cultures were prepared from muscle biopsies of two unaffected controls and from patients 1, 2, 3 and 4 by enzymatic and mechanical treatment and plating in Dulbecco's modified Eagle's medium (DMEM) supplemented with 20% fetal calf serum, penicillin, streptomycin and amphotericin B (Sigma). To test for apoptosis, cells were fixed in 50% acetone-50% methanol and processed for TUNEL analysis using the Dead End Fluorescence TUNEL System (Promega). Visualization of all nuclei was performed by staining with Hoechst 33258. […] Demir et al. 2002. Giusti et al. 2005.
Panels A and B of FIG. 1 show mitochondrial membrane potentials in myoblasts from UCMD patients 1 (A) and 4 (B) as a function of time. Mitochondrial membrane potential was measured based on accumulation of tetramethylrhodamine methyl ester (TMRM). […] The extent of cell and, consequently, mitochondrial loading with potentiometric probes is affected by the activity of the plasma membrane multidrug resistance pump which is inhibited by cyclosporin A. Treatment with cyclosporins may therefore cause an increased mitochondrial fluorescence that can be erroneously interpreted as an increase of mitochondrial membrane potential. […] Data were acquired and analyzed using Cell R software (Olympus). […]

[2] = test system: myoblast cultures from UCMD patients; assay: Mitochondrial TMRM fluorescence (membrane potential) after oligomycin in myoblast cultures from UCMD patients; format: cell-based, human; conditions: myoblasts from patients 1 and 4; 1.6 μM for 30 min, 6 μM oligomycin
Method: To assess whether the anti-apoptotic effects of collagen VI and CsA could be traced to mitochondria, mitochondrial function was studied in living muscle cell cultures. […] Addition of oligomycin was instead followed by mitochondrial depolarization in the cells from all UCMD patients. […] Mitochondrial membrane potential was assessed based on accumulation of tetramethylrhodamine methyl ester (TMRM). It is noted that oligomycin was expected to cause hyperpolarization in healthy, respiring cells in which the mitochondrial membrane potential is maintained by proton pumping by the respiratory chain and the proton electrochemical gradient is used to drive ATP synthesis.
Panels A and B of FIG. 1 show mitochondrial membrane potentials in myoblasts from UCMD patients 1 (A) and 4 (B) as a function of time. Mitochondrial membrane potential was measured based on accumulation of tetramethylrhodamine methyl ester (TMRM). […] The extent of cell and, consequently, mitochondrial loading with potentiometric probes is affected by the activity of the plasma membrane multidrug resistance pump which is inhibited by cyclosporin A. Treatment with cyclosporins may therefore cause an increased mitochondrial fluorescence that can be erroneously interpreted as an increase of mitochondrial membrane potential. […] Data were acquired and analyzed using Cell R software (Olympus). […] Apoptosis was assessed as described before.

[3] = test system: permeability transition pore (PTP); assay: Calcium retention capacity (CRC) of liver mitochondria from treated Col6a1-/- mice; format: in vivo; conditions: 5 mg/kg i.p. twice daily for 5 days
[4] = test system: permeability transition pore (PTP); assay: Calcium retention capacity (CRC) of muscle mitochondria from treated Col6a1-/- mice; format: in vivo
[5] = test system: FDB fibers isolated from Col6a1-/- mice; assay: TMRM assay with oligomycin in FDB fibers from treated Col6a1-/- mice; format: in vivo; conditions: 5 mg/kg i.p. twice daily for 5 days
Col6a1^-/- mice [6] = assay: TUNEL assay on diaphragm sections from treated Col6a1-/- mice; format: in vivo
Col6a1^-/- mice [7] = assay: Ultrastructural evaluation of diaphragm muscle from treated Col6a1-/- mice; format: in vivo; conditions: 5 mg/kg i.p. twice daily for 5 days, vs control mice
[8] = treated p.o. with a formulation

For `C/C=C/C[C@@H](C)[C@@H](O)[C@H]1C(=O)N[C@@H](CC)C(=O)N(C)[C@H](C)C(=O)N(CC)[C@@H](C(C)C)C(=O)N[C@@H](C(C)C)C(=O)N(C)[C@@H](CC(C)C)C(=O)N[C@@H](C)C(=O)N[C@H](C)C(=O)N(C)[C@@H](CC(C)C)C(=O)N(C)[C@@H](CC(C)C)C(=O)N(C)[C@@H](C(C)C)C(=O)N1C` [[D-MeAla]^3-[EtVal]^4-CsA], the “occurrence of apoptosis (TUNEL-positive nuclei)” value [1] was “restored the occurrence of apoptosis to the level displayed by cells from healthy donors; also recorded: restoring the occurrence of apoptosis to the level displayed by cells from healthy donors”, the “oligomycin-dependent mitochondrial depolarization (TMRM)” value [2] was “as effective as cyclosporin A in preventing oligomycin-dependent mitochondrial depolarization” and the “desensitization of the PTP (Ca2+ threshold for PTP opening, CRC)” value [3] was “significant desensitization of the PTP”. For the same compound, the “desensitization of the PTP (Ca2+ threshold for PTP opening, CRC)” value ([4]; muscle mitochondria, 5 mg/kg i.p. twice daily for 5 days) was “significant desensitization of the PTP”, the “CRC relative to maximum attainable by direct addition” value ([4]; muscle mitochondria, 5 mg/kg i.p. twice daily for 5 days, CRCmax with 0.8 μM in medium) was “reaching close to the maximum level” and the “CRC in muscle mitochondria” value [4, 8] was “Clear increases in CRC”. The “number of fibers in which mitochondrial depolarization could be observed” value ([5]; vs placebo) was “significantly decreased the number of fibers”, the “Number of fibers depolarizing after oligomycin addition” value ([5]; per individual mouse (#24-27), 5 μM oligomycin, threshold 90% fluorescence, 5 mg/kg) was 4 (2×) and 2 and 0 and the “apoptotic nuclei in diaphragm fibers (TUNEL)” value (Col6a1^-/- mice [6]; 5 mg/kg i.p. twice daily for 5 days, vs placebo) was “dramatic decrease of apoptotic nuclei; also recorded: as effective as that with CsA”. For the same compound, the “incidence of apoptosis in diaphragm sections (TUNEL)” value (Col6a1^-/- mice [6]; [8]) was “dramatically reduced incidence of apoptosis” and the “number of fibers with altered mitochondria (electron microscopy)” value (Col6a1^-/- mice [7]) was “significantly decreased number of fibers with altered mitochondria”.
